# Laboratory results from the supplement of paper PMC12819154, “High-throughput peptide-centric local stability assay extends protein–ligand identification to membrane proteins, tissues and bacteria” (Nature Structural & Molecular Biology, 2025).
# Sequences of proteins named here, by UniProt entry; tags and fusion partners are left off. A change or cut given only in a name is not applied to a line headed by its entry.
# UniProt P77616: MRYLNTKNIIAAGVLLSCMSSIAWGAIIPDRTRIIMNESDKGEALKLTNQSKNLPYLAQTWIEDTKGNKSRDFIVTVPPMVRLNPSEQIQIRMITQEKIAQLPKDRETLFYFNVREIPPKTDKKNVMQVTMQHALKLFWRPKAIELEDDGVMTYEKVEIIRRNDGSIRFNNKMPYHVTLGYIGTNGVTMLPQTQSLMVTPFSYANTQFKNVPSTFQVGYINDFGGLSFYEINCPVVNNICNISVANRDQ
# UniProt P76086: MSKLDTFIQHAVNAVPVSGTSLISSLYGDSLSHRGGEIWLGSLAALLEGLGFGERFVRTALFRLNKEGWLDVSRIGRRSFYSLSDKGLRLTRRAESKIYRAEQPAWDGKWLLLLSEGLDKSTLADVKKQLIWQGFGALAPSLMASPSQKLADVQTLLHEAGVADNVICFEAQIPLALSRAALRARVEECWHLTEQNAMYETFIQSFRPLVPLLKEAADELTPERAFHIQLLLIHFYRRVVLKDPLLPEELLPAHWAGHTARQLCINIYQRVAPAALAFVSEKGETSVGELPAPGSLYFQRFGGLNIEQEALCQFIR
# UniProt P76498: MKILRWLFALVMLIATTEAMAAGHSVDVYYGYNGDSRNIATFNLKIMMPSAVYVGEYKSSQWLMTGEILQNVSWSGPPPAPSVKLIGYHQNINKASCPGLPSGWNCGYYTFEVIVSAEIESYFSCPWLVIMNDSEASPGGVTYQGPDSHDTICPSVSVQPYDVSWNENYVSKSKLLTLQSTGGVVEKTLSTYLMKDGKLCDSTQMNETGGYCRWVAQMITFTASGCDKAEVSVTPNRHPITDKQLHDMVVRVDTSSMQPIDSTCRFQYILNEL
# UniProt P76578: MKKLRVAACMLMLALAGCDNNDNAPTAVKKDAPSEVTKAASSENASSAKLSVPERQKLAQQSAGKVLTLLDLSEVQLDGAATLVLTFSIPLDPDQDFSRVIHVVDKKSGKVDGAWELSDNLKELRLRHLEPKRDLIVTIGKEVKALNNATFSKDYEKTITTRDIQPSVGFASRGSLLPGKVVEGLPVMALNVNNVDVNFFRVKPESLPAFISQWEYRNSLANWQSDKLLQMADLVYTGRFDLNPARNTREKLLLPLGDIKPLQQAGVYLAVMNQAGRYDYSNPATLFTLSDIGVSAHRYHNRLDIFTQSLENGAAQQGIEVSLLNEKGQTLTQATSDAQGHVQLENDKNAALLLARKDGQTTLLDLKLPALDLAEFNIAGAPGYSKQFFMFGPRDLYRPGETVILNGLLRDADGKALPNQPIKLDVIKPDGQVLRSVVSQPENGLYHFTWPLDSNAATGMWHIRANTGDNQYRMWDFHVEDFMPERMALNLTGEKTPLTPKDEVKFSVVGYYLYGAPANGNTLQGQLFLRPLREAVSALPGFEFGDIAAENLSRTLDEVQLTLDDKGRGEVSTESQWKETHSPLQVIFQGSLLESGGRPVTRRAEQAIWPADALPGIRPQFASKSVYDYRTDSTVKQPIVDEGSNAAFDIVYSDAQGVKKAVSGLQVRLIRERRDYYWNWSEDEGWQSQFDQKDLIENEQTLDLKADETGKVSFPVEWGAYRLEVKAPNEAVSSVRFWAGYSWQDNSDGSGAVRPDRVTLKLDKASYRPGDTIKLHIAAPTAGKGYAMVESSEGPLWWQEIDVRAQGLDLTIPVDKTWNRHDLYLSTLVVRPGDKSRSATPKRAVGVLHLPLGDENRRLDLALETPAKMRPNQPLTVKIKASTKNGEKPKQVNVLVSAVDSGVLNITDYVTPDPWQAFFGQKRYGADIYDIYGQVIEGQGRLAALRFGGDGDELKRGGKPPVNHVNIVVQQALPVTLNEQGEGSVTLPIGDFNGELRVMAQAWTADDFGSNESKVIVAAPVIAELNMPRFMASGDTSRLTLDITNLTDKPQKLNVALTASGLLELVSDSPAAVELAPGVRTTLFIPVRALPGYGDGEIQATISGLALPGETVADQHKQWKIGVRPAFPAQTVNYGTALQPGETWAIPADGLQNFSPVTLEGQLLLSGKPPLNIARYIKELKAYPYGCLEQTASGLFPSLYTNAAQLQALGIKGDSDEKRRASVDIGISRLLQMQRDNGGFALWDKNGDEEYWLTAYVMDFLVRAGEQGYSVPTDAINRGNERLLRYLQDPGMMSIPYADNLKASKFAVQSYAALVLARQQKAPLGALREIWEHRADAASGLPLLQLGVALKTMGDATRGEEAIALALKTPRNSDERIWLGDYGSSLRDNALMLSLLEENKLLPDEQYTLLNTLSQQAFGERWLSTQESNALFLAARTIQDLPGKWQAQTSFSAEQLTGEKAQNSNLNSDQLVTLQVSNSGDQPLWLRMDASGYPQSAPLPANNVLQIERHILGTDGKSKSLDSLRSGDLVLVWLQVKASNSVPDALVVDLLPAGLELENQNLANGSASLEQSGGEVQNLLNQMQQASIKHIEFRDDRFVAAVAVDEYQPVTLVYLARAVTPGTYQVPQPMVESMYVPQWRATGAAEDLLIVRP
# UniProt P77611: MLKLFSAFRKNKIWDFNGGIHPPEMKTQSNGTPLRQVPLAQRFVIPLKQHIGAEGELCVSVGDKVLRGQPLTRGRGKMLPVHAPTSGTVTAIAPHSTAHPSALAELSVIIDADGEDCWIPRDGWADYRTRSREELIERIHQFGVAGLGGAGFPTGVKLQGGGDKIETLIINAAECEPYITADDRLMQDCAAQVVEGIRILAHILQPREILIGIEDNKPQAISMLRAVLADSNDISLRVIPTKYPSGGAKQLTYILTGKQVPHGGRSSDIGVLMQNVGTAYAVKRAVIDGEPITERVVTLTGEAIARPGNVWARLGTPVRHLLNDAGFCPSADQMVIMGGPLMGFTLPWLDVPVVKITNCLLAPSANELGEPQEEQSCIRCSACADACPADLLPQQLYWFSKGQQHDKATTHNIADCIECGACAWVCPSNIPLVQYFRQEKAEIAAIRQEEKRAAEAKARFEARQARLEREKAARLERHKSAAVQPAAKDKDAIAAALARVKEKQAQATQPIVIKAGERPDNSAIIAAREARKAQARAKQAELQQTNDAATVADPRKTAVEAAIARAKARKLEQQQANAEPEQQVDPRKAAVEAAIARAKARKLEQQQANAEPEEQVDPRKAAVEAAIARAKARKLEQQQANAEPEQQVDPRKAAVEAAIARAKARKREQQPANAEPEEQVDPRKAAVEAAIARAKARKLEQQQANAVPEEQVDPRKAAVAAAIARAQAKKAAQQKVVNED
# UniProt P77279: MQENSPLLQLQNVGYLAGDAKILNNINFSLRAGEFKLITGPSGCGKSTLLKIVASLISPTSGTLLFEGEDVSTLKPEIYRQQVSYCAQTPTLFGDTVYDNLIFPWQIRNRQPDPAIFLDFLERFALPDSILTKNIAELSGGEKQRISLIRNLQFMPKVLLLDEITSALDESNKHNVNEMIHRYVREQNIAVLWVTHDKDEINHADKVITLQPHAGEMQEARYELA
# UniProt P76569: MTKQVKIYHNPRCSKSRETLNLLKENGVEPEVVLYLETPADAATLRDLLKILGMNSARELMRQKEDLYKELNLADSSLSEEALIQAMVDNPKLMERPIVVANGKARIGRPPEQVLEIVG
# UniProt P76556: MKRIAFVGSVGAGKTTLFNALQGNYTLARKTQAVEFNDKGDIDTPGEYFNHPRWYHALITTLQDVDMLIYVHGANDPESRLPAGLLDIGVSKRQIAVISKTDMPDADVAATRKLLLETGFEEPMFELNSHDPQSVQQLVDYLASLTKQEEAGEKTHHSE
# UniProt P76330: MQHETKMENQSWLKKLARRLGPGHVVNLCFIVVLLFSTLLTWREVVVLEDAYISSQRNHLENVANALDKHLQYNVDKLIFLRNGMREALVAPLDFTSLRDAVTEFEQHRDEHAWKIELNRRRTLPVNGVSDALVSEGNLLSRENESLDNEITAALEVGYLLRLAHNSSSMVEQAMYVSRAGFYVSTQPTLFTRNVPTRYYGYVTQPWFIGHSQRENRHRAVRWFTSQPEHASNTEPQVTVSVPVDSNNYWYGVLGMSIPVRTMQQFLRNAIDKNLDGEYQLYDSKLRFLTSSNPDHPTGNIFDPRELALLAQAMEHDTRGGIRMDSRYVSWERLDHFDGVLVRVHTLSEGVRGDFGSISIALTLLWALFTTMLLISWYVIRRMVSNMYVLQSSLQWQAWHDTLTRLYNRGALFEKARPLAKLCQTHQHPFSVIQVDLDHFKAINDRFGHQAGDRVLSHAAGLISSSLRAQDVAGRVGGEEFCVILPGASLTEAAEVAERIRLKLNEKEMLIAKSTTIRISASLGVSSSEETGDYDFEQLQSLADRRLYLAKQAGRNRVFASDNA
# UniProt P76234: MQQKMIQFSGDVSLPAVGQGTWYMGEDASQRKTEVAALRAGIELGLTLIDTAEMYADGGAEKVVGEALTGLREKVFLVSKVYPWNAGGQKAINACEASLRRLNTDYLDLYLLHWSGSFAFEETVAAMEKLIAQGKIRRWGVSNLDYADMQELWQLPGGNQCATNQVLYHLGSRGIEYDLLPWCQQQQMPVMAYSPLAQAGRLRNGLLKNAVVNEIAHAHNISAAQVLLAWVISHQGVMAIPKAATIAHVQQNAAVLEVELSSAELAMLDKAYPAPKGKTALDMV
# UniProt P76010: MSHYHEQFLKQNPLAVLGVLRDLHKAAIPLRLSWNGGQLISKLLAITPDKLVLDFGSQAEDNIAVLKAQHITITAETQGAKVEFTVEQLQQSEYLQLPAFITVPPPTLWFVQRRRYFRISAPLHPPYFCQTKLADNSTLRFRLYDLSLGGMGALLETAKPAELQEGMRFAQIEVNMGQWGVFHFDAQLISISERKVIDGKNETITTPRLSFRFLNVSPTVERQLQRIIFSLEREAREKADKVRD
# UniProt P76196: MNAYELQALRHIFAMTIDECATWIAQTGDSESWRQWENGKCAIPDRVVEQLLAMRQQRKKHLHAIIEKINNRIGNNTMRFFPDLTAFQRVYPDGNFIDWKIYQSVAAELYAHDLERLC
# UniProt P75968: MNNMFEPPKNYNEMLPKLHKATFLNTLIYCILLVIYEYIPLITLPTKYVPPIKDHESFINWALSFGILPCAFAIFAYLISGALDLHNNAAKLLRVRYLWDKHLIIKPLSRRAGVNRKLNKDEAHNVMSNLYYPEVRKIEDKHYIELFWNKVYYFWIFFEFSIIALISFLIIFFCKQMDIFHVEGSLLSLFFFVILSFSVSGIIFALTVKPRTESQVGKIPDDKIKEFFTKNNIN
# UniProt P77272: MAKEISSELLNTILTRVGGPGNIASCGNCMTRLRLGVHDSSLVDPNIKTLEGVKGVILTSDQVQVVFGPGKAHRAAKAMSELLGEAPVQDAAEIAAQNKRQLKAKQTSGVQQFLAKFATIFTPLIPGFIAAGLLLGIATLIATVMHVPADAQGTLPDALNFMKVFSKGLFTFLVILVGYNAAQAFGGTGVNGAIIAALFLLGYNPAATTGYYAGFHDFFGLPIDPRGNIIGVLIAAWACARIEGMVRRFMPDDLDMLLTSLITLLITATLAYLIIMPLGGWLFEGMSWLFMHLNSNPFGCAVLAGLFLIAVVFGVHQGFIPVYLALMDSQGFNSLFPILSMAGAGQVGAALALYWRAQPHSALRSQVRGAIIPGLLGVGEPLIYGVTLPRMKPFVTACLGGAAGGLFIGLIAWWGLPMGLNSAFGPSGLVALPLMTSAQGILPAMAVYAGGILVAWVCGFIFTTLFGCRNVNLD
# UniProt P76573: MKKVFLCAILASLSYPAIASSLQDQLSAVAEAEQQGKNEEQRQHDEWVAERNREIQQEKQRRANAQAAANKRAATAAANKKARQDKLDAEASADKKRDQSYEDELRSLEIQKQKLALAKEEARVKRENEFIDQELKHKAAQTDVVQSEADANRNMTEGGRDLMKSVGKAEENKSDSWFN
# UniProt P77626: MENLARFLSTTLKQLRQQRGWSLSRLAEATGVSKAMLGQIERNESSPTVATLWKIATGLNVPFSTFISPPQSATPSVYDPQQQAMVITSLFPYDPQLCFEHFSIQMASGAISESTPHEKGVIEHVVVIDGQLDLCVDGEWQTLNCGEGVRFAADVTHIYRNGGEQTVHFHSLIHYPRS
# UniProt P76280: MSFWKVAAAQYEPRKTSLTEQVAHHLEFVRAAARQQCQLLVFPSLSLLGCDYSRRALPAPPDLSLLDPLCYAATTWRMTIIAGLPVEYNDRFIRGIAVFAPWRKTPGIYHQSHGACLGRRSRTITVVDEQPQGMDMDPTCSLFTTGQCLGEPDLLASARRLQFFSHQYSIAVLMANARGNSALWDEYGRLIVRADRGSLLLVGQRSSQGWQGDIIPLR
# UniProt P77360: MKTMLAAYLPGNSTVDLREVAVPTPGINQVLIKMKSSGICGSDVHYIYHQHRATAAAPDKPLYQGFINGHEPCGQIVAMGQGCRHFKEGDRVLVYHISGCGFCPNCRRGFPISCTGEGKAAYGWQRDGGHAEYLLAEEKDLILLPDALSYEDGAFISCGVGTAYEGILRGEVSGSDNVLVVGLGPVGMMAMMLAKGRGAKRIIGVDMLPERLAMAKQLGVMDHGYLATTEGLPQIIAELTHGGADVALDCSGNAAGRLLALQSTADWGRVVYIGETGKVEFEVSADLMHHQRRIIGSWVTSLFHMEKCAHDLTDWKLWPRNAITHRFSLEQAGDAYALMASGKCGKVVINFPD
# This is one part of the list. Most values lie at the level of the controls, where differences are scatter.
# Compound: CC1(C)S[C@@H]2[C@H](NC(=O)[C@H](N)c3ccccc3)C(=O)N2[C@H]1C(=O)O [ampicillin]
# Assay: log2 fold change of tryptic peptide abundance, ligand vs vehicle (limited proteolysis) (log2 ratio); higher = more trypsin-susceptible (destabilized)
# Conditions: ligand concentration: 10 uM; sample: E. coli crude lysate
row,Target,log2 fold change
1,"UniProt P77616 (peptide sequence: IIMNESDKGEALK, peptide start residue: 34)",-0.245
2,"UniProt P77379 (peptide sequence: WHALTQGAAK, peptide start residue: 41)",0.0995
3,"UniProt P76231 (peptide sequence: EDFGISAKPIAMFK, peptide start residue: 77)",0.268
4,"UniProt P76086 (peptide sequence: LNKEGWLDVSR, peptide start residue: 64)",-0.238
5,"UniProt P76498 (peptide sequence: LLTLQSTGGVVEK, peptide start residue: 175)",-0.597
6,"UniProt P76540 (peptide sequence: NALEQLFSAGTLRK, peptide start residue: 143)",-0.593
7,"UniProt P76578 (peptide sequence: AQGLDLTIPVDKTWNR, peptide start residue: 805)",-0.46
8,"UniProt P77611 (peptide sequence: KTAVEAAIAR, peptide start residue: 556)",0.227
9,"UniProt P76513 (peptide sequence: SLMESVEAK, peptide start residue: 188)",-0.158
10,"UniProt P77279 (peptide sequence: NIAELSGGEK, peptide start residue: 134)",0.0694
11,"UniProt P76639 (peptide sequence: LAKQDQGYK, peptide start residue: 243)",-0.145
12,"UniProt P76569 (peptide sequence: ILGMNSAR, peptide start residue: 51)",0.15
13,"UniProt P76556 (peptide sequence: LPAGLLDIGVSKR, peptide start residue: 81)",-0.335
14,"UniProt P76330 (peptide sequence: LCQTHQHPFSVIQVDLDHFK, peptide start residue: 422)",0.42
15,"UniProt P77561 (peptide sequence: KIESYQGAAGGWGAVK, peptide start residue: 4)",-0.0721
16,"UniProt P76234 (peptide sequence: KTEVAALR, peptide start residue: 32)",-0.242
17,"UniProt P76010 (peptide sequence: EAREKADK, peptide start residue: 234)",0.26
18,"UniProt P76008 (peptide sequence: LTDAGHQVNNVEVIAR, peptide start residue: 26)",-0.314
19,"UniProt P76559 (peptide sequence: VGSETAWIK, peptide start residue: 159)",-0.142

row,Target,log2 fold change
1,"UniProt P77559 (peptide sequence: YFVAVAEELHFGR, peptide start residue: 10)",0.526
2,"UniProt P76342 (peptide sequence: GNDRPPAPAGK, peptide start residue: 52)",0.0383
3,"UniProt P76044 (peptide sequence: YQDHMINTLADAR, peptide start residue: 151)",-0.147
4,"UniProt P77439 (peptide sequence: MLQQIVTTAHQR, peptide start residue: 593)",0.43
5,"UniProt P76196 (peptide sequence: IYQSVAAELYAHDLER, peptide start residue: 101)",-0.602
6,"UniProt P75952 (peptide sequence: DAALDKAMK, peptide start residue: 22)",1.06
7,"UniProt P77187 (peptide sequence: HGDVYSNIQPDPEFR, peptide start residue: 364)",-0.286
8,"UniProt P75968 (peptide sequence: KLNKDEAHNVMSNLYYPEVR, peptide start residue: 117)",0.0348
9,"UniProt P76116 (peptide sequence: TFDTPTHPNSLALSADGK, peptide start residue: 309)",-0.884
10,"UniProt P77272 (peptide sequence: LRLGVHDSSLVDPNIK, peptide start residue: 33)",-0.762
11,"UniProt P76573 (peptide sequence: DQSYEDELR, peptide start residue: 98)",-0.313
12,"UniProt P77626 (peptide sequence: NESSPTVATLWK, peptide start residue: 43)",-0.259
13,"UniProt P76280 (peptide sequence: TSLTEQVAHHLEFVR, peptide start residue: 16)",0.264
14,"UniProt P75931 (peptide sequence: FAPLYGELK, peptide start residue: 125)",0.236
15,"UniProt P77360 (peptide sequence: LLALQSTADWGR, peptide start residue: 258)",-0.461
16,"UniProt P76177 (peptide sequence: VINGVVELPK, peptide start residue: 103)",0.306
17,"UniProt P76418 (peptide sequence: ENNAACYFNR, peptide start residue: 47)",-0.288
18,"UniProt P77252 (peptide sequence: LGVVDVGASLQGR, peptide start residue: 119)",0.159

# Quoted from the listing.
# log2 fold change with UniProt P76342 (peptide sequence: GNDRPPAPAGK, peptide start residue: 52) reads 0.0383
# log2 fold change with UniProt P76116 (peptide sequence: TFDTPTHPNSLALSADGK, peptide start residue: 309) reads -0.884
